These are yes or no findings as the source states them, for the method shown. In cells and extracts the contact can be indirect. Binding can be weak; no strength is given.
Key:
GST-Rab35 wt (human) = GST-Rab35 wt (human) (UniProt Q15286); assay: pull-down; 50 ug GST-Rab35 (wt, R27H, Q67L or S22N) precoupled to Glutathione-Sepharose beads, 1 mg HEK 293T lysate with FLAG-CD1 or FLAG-CD2 DENN domain; 20 mM Hepes, 100 mM NaCl2, 5 mM MgCl2, 1% Triton X-100; 1 h at 4 °C; anti-FLAG immunoblot; only the target purified
GST-Rab35 S22N (human) = GST-Rab35 S22N (human) (UniProt Q15286); assay: as above
GST-Rab35 Q67L (human) = GST-Rab35 Q67L (human) (UniProt Q15286); assay: as above
GST-MICAL1 CC domain = GST-MICAL1 CC domain (UniProt Q8TDZ2); assay: pull-down; 50 ug GST-MICAL1 CC domain precoupled to Glutathione-Sepharose beads, 1 mg HEK 293T lysate with FLAG-Rab35 wt or variants; 50 mM Tris-HCl pH 7.4, 100 mM NaCl2, 5 mM MgCl2, 0.5% Triton X-100, 0.25% deoxycholate, 0.05% SDS, 5% glycerol; 1 h at 4 °C; anti-FLAG immunoblot; only the target purified

The chains behind the UniProt entries cited, without tags or fusion partners. Where a name states a change or a piece, a line headed by the entry shows the natural chain unless it says otherwise.
UniProt Q15286: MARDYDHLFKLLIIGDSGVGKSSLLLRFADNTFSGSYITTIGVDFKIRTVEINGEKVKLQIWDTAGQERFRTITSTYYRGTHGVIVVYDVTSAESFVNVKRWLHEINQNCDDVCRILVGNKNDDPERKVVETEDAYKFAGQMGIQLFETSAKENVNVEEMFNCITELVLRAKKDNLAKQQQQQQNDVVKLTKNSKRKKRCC
UniProt Q8TDZ2: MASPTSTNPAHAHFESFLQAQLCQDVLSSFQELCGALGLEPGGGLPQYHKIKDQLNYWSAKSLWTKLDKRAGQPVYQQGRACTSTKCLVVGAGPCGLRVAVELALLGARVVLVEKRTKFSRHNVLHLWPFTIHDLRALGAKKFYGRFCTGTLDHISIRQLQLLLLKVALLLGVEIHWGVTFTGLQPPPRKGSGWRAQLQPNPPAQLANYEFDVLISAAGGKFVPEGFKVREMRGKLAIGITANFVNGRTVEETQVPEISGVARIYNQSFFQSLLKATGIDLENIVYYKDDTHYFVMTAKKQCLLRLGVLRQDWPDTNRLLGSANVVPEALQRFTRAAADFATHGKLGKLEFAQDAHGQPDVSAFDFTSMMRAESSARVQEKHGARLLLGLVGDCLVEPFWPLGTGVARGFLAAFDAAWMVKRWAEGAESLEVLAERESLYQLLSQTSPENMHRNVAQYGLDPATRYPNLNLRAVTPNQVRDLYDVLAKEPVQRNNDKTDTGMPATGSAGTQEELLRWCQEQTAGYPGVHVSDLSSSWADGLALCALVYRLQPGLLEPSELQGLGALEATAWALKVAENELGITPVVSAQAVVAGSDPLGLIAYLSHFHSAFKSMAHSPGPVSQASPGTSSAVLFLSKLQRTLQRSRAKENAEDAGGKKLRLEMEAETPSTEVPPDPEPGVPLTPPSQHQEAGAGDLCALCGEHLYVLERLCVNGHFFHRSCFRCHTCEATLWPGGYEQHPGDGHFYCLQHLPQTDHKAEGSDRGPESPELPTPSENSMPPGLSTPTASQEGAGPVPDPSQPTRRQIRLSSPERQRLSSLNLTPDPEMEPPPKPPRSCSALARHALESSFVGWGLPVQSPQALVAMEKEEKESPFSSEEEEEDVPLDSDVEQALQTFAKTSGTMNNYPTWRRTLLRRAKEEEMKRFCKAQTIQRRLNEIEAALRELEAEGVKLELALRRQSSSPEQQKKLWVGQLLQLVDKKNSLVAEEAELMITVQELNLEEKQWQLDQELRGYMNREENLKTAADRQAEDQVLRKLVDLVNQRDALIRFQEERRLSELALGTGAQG
UniProt Q6P3S1: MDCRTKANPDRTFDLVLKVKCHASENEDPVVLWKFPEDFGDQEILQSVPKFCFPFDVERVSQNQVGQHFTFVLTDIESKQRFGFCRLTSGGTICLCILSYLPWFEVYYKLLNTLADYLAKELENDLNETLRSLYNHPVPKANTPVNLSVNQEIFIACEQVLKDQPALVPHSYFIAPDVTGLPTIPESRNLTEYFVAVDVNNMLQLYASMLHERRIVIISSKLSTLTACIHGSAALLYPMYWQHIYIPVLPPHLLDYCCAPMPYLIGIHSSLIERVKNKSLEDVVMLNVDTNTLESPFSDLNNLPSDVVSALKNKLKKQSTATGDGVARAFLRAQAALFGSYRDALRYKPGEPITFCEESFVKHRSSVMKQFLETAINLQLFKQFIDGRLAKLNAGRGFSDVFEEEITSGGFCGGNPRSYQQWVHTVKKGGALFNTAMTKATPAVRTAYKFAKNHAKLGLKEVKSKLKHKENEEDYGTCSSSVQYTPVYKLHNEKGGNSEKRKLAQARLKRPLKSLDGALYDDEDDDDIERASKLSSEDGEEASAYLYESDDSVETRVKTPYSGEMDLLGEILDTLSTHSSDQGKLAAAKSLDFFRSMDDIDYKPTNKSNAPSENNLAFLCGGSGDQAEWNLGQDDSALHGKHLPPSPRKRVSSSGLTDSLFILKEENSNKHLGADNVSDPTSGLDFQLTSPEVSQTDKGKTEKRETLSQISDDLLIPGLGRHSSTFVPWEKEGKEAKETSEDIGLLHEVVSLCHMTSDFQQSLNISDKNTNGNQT
UniProt Q8TEH3: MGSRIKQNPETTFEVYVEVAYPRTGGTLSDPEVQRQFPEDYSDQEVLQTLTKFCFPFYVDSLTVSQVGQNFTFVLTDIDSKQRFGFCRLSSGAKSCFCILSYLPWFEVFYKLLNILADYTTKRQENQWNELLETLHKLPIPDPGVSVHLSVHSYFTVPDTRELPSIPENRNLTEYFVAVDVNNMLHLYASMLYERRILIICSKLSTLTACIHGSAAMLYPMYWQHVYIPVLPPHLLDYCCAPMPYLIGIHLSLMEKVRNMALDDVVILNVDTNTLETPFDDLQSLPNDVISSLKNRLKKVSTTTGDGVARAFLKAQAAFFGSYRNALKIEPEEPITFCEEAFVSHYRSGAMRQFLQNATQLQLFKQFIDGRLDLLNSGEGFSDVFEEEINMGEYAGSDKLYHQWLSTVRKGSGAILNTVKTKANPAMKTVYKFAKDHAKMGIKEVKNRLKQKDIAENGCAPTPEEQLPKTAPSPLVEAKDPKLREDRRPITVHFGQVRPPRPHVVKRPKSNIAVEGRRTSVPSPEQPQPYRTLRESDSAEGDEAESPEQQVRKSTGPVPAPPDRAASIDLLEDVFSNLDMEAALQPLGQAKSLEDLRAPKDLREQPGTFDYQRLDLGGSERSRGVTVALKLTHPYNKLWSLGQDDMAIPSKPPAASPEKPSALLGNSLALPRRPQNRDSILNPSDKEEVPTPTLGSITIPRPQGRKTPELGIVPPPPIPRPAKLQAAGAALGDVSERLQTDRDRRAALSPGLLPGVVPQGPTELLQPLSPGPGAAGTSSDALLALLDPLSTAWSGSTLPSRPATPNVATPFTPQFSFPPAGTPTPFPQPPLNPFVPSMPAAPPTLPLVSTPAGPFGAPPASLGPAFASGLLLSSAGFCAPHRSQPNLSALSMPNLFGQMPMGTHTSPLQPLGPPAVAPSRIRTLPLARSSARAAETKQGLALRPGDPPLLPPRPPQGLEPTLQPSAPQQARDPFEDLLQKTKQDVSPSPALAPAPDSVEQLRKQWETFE

Substance | binding (GST-Rab35 wt (human)) | binding (GST-Rab35 S22N (human)) | binding (GST-Rab35 Q67L (human)) | binding (GST-MICAL1 CC domain)
FLAG-connecdenn 2 (CD2) DENN domain (from UniProt Q6P3S1) (domain or fragment) | binds weakly | binds | binds weakly | –
FLAG-connecdenn 1 (CD1) DENN domain (from UniProt Q8TEH3) (domain or fragment) | binds weakly | binds | binds weakly | –
FLAG-Rab35 Q67L (from UniProt Q15286-1 1-201) | – | – | – | binds

Results, then the substance that gave them:

binding (GST-Rab35 wt (human)) | binding (GST-Rab35 S22N (human)) | binding (GST-Rab35 Q67L (human)) | binding (GST-MICAL1 CC domain) | Substance
– | – | – | binds | FLAG-Rab35 wt (from UniProt Q15286-1 1-201)
– | – | – | no binding | FLAG-Rab35 S22N (from UniProt Q15286-1 1-201)
